Experimental data published in patent US20100015654A1 (INSTITUT DE RECHERCHES CLINIQUES DE MONTREAL I R C M, published 2010).
Results are given in words; binding and its absence hold for the method and conditions named. In cells and extracts the contact can be indirect. Some binding calls cover weakened binding; strength is not graded here.

Assays:
[1] = biological target: T1, mouse 2B4 (CD244), endogenous in IL-2-activated mouse NK cells (mouse) (UniProt Q07763); assay: co-immunoprecipitation from mouse NK cells
T1 sequence (constitutively tyrosine phosphorylated in mouse NK cells (sites not stated), looked up): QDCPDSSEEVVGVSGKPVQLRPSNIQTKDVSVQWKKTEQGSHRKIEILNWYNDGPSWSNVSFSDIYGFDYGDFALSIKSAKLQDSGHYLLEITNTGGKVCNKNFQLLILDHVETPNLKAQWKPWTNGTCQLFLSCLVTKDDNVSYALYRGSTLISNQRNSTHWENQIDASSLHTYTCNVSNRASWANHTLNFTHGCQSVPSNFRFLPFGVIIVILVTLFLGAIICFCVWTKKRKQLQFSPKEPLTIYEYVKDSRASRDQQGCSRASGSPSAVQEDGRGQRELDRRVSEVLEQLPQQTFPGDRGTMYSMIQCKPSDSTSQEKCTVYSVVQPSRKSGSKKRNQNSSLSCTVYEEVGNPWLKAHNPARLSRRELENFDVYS

[2] = biological target: T1, mouse 2B4 (CD244), endogenous in IL-2-activated mouse NK cells (mouse); assay: co-immunoprecipitation from IL-2-activated mouse NK cells, anti-2B4 immunoblot (FIG. 5)
[3] = biological target: T1, mouse 2B4 (CD244), endogenous in IL-2-activated mouse NK cells (mouse); assay: co-immunoprecipitation from IL-2-activated mouse NK cells, anti-2B4 immunoblot

Measured: binding

B1: mouse SAP (other, UniProt O88890 1-126, looked up)
chain: MDAVTVYHGKISRETGEKLLLATGLDGSYLLRDSESVPGVYCLCVLYQGYIYTYRVSQTETGSWSAETAPGVHKRFFRKVKNLISAFQKPDQGIVTPLQYPVEKSSGRGPQAPTGRRDSDICLNAP
notes: Intracellular adaptor made of an SH2 domain and a short tail
binds: all assays above
